Construct, isoform or probe ends are uncertain for at least one entry. Negatives hold for the conditions tested.
System: PpnGRF5-1
Test: EMSA
Details: recombinant protein, protein details: GST (N-terminal, pGEX-KG)
[1] = mutant probe, legend also mentions 50x/100x unlabeled probe and mutant competitors

Sequence | binding result (label: biotin) | binding result [1]
ACCTTTTTGGTGTTTCCCGCATTCAAACTGTCAGCCTCAAGTTCACAGTTTCTCCCCTTT (double strand) [PagCKX1p-1 probe (-1710 site)] | binds | –
ACCTTTTTGGTGTTTCCCGCATTCAAACGCTACTCCTCAAGTTCACAGTTTCTCCCCTTT (double strand) [PagCKX1p-1 mutant probe] | – | no binding
AATCAACCTTTGTTCCGACCAATCTTCGCTACTCCCAAGTGTGATTCCATATAAGAGCTC (double strand) [PagCKX1p-2 mutant probe] | – | no binding
AATCAACCTTTGTTCCGACCAATCTTCTGTCAGCCCAAGTGTGATTCCATATAAGAGCTC (double strand) [PagCKX1p-2 probe (+60 site)] | binds | –
